Several values for one entry are separate records, joined by “and”; a condition that tells them apart may be missing. Equal values may be shown once. Screen size: about 580,000 compounds; about 6,100 (1.1%) were called active. The inconclusive results got no clear call from the source; some entries with a clear call stand among them for comparison. Calls come from the whole dose curve; as a rule, active = well fitted inhibition curve with a large enough effect; inconclusive = small, poorly fitted or top-dose-only effect, or another doubt; inactive = no such curve, though single readings can be large or run the other way. A potency beside an inconclusive call is a rough fit, not a confirmed value.
Target: Polyunsaturated fatty acid lipoxygenase ALOX12 (Homo sapiens) (UniProt P18054)
Assay: Primary qHTS assay for inhibitors of human arachidonate 12S-lipoxygenase (ALOX12): Round 2
Conditions: purified 12hLO, xylenol orange hydroperoxide absorbance; activity change, negative = inhibition: at 108 µM (top of the series)
Procedure, shortened: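 Hydroperoxide product was detected by ferrous iron/xylenol orange as the 573 to 405 nm absorbance ratio. Arachidonic acid at 40 uM (final) was turned over for 30 min at room temperature by 150 nM human 12hLO, pH 7.0 Hepes buffer, after 15 min compound preincubation.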
% is set by controls: 0 for no effect and ±100 for the full control effect; potency is the fitted concentration of half-maximal effect.

By UniProt entry, the sequences of proteins in these tests, tags left out.
UniProt P18054, whole entry, looked up: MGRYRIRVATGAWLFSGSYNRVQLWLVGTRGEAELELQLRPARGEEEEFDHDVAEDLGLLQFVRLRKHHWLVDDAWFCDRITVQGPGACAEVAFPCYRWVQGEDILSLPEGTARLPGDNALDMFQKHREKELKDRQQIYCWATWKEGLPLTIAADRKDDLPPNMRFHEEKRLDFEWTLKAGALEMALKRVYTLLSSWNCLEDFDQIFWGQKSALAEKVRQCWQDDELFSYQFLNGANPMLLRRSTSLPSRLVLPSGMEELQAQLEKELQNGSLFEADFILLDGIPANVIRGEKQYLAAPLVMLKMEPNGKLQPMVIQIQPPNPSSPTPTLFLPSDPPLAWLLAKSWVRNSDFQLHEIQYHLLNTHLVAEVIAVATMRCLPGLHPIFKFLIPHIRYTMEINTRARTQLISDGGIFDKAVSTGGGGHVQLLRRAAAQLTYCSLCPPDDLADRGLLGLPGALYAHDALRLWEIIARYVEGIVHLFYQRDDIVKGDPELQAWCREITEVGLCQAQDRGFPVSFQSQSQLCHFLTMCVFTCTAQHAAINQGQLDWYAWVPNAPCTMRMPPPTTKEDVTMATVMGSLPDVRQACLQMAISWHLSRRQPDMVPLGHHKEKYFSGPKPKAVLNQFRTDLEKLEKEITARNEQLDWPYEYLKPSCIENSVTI

Structure (SMILES) | Potency | activity change, negative = inhibition
COc1ccc(C2SCC(=O)Nc3c2c(C)nn3C)cc1OC (configuration not stated) | inconclusive: 44.7 µM [inhibitor, partial curve, poor fit] | 
O=C(O)C(O)(c1ccccc1)C1CCCCC1 (configuration not stated) | inconclusive: 31.6 µM [inhibitor, partial curve, poor fit] | 
O=C1NC(=O)C(CCc2ccncc2)(Cc2ccc3c(c2)OCO3)C(=O)N1CCc1ccccc1 (configuration not stated) | inactive | 
N#Cc1ccc(NC(=O)CN2CCCCCC2)cc1Cl | inconclusive: 89.1 µM [inhibitor, single point] | 
CC(C)CN1Cc2cc(-c3ccccc3)ccc2-n2nncc2C1 | inactive | 
CCCCCCCCn1sccc1=O | active: 44.7 µM | 
COC1C(O)C(C)OC(OC2C(Oc3cccc4c(O)c5c(=O)oc6ccc(C)c7c(=O)oc(c34)c5c67)OC(C)C(O)C2O)C1O (configuration not stated) | inconclusive: 17.8 µM [inhibitor, full curve, poor fit] | 
Cc1cccc(N2CCN(CCc3ccccc3)CC2)c1C | inconclusive: 44.7 µM [inhibitor, partial curve, poor fit] | 
CN(C)c1ccc(C(=O)NC[C@H]2C[C@@H]3CCN2C[C@@H]3CN2CCc3ccccc3C2)cc1 | inactive | 
O=C1N=c2ccccc2=C/C1=C\c1c(O)[nH]c(=S)[nH]c1=O | inconclusive: 50.1 µM [inhibitor, partial curve, poor fit] | 
COc1ccc(N2C(=O)/C(=C/c3ccc(OC)c(OC)c3)C(=O)NC2=S)cc1 | active: 50.1 µM | 
Cn1c(O)c(C(c2ccncc2)c2c(O)n(C)c(=S)n(C)c2=O)c(=O)n(C)c1=S | inconclusive: 35.5 µM [inhibitor, partial curve, poor fit] | 
COC(=O)C1=C(N)Oc2c(c(=O)oc3ccccc23)[C@]12C(=O)N(C)c1ccccc12 | inconclusive: 0.708 µM [inhibitor, full curve, poor fit] | 
Brc1ccccc1CNCCc1ccc2c(c1)OCO2 | inconclusive: 3.55 µM [inhibitor, full curve, poor fit] | 
CC(=O)NCCc1c[nH]c2ccccc12 | inactive and inconclusive: 3.98 µM [inhibitor, full curve, poor fit] | 
Cc1nc(-c2ccco2)cc([C@H]2CN3CC[C@H]2C[C@@H]3CNC(=O)c2cccs2)n1 | inconclusive: 28.2 µM [inhibitor, full curve] | 
CCOC(=O)C1=C(N)OC2=C(C(=O)CCC2)[C@]12C(=O)N(CC(N)=O)c1ccccc12 | inconclusive: 15.8 µM [inhibitor, partial curve, poor fit] | 
O=C1CCN(C(=O)CNC(=O)Cc2ccccc2)CC1 | inactive | 
COc1ccc([N+](=O)[O-])cc1N=Cc1c(O)n(CCc2ccccc2)c(=O)n(C(C)C)c1=O | inactive | 
C#C[C@H]1CN2CC[C@H]1C[C@@H]2COC(=O)Nc1cc(OC)cc(OC)c1 | active: 50.1 µM | 
COc1ccc(C(=O)N2C[C@@H]3C[C@H](C2)c2c(-c4cccs4)ccc(=O)n2C3)cc1 | inconclusive: 79.4 µM [inhibitor, partial curve] | 

Structure (SMILES) | Potency | activity change, negative = inhibition
O=C(N/N=C/c1c(O)n(-c2cccc3ccccc23)c(=O)[nH]c1=O)c1ccncc1 | inactive | 
O=c1ccc2[nH]cc(C3=CCNCC3)c2[nH]1 | inconclusive: 11.2 µM [inhibitor, partial curve, poor fit] | 
CC(=O)C1=C(C)OC(N)=C(C(=O)OCc2ccccc2)C12C(=O)Nc1ccccc12 (configuration not stated) | inconclusive: 28.2 µM [inhibitor, partial curve, poor fit] | 
N#Cc1ccc(NC(=O)Cc2ccc3c(c2)CCC3)cc1Cl | inconclusive: 50.1 µM [inhibitor, partial curve, poor fit] | 
COP(=O)(OC)C(NC(=O)C(C)(C)C)=C(Cl)Cl | inconclusive: 56.2 µM [inhibitor, partial curve, poor fit] | 
c1ccc(N2CC[C@@]3(CCCNC3)C2)cc1 | inconclusive: 31.6 µM [inhibitor, single point] | 
COc1cc2c(cc1Oc1ccccc1)NC(=O)C21CCN(Cc2ccccc2)CC1 | inconclusive: 56.2 µM [inhibitor, full curve] | 
O=C(c1cn(Cc2ccccc2)c2ccccc12)N1CCC1 | inactive | 
O=C1NC(=O)N(Cc2ccc(F)cc2)C(=O)/C1=C\C=C\c1ccco1 | inconclusive: 44.7 µM [inhibitor, partial curve, poor fit] | 
CCSc1cc(C2C(C#N)=C(N)Oc3n[nH]c(C)c32)c(C)o1 (configuration not stated) | inconclusive: 31.6 µM [inhibitor, partial curve, poor fit] | 
CCCCc1c(C)nc(N2CCN(C)CC2)[nH]c1=O | inactive | 
O=C1NC(=O)N(c2cccc(Br)c2)C(=O)/C1=C/c1ccsc1 | active: 44.7 µM | 
CCOc1ccc(-c2c(C)n(-c3ccc(OCC)cc3)c3[n+]2CCCCC3)cc1 | inactive | 
O=C1NC(=O)N(CCc2ccc(F)cc2)C(=O)/C1=C/C=C/c1ccccc1 | inconclusive: 100 µM [inhibitor, single point] | 
Cc1ccc(-n2c(/C=C/c3ccc(Br)s3)nc3ccccc3c2=O)cc1C | inactive | 
CCOC(=O)[C@]12Cc3cc(C)ccc3[C@H]1N(C(C)C)C(=O)c1ccccc12 | inconclusive: 56.2 µM [inhibitor, partial curve, poor fit] | 
c1cnc2nc(C3CCNCC3)[nH]c2c1 | inconclusive: 8.91 µM [inhibitor, full curve, poor fit] | 
Cn1nc(C2CCCNC2)n(C2CCCC2)c1=O (configuration not stated) | inactive | 
ClC1=C(Cl)C2(Cl)C(CBr)CC1(Cl)C2(Cl)Cl (configuration not stated) |  | inactive: -9.42% [at 22.9 µM]
O=C(NCCN1CCC2(CC1)C(=O)NCN2c1ccccc1)c1ccc(Cl)c(Cl)c1 | inconclusive: 50.1 µM [inhibitor, partial curve, poor fit] | 
O=c1[nH]c2ccccc2n1C1CCN(CCCC(c2ccc(F)cc2)c2ccc(F)cc2)CC1 | inconclusive: 100 µM [inhibitor, partial curve, poor fit] and inconclusive: 12.8 µM [inhibitor, partial curve, poor fit] and inconclusive: 44.7 µM [inhibitor, partial curve, poor fit] | 

Structure (SMILES) | Potency | activity change, negative = inhibition
O=C1C(Cc2cnc[nH]2)NC(=S)N1c1ccccc1 (configuration not stated) | inconclusive: 50.1 µM [inhibitor, partial curve, poor fit] | 
COC(=O)C1=C(c2ccc(OCc3ccccc3)cc2)C[C@@H]2CC[C@H]1N2C(=O)NCc1ccc2c(c1)OCO2 | inconclusive: 44.7 µM [inhibitor, partial curve, poor fit] | 
O=C(Cc1c(-c2ccccc2)nc2ccc(Br)cn12)N1CCCC1 | inactive | 
Brc1ccc2c(c1)C(OC1CN3CCC1CC3)c1ccccc1CS2 (configuration not stated) | inconclusive: 79.4 µM [inhibitor, partial curve, poor fit] | 
Cc1cc(/C=C2\C(=O)NC(=O)N(c3ccccc3F)C2=O)c(C)n1-c1cc(C(=O)O)cc(C(=O)O)c1 | inconclusive: 112 µM [inhibitor, partial curve, poor fit] | 
CC1CNCCN1c1ccc(Cl)cc1 (configuration not stated) | inactive | 
CCC(C)N1C(=O)/C(=C\c2cc3c4c(c2)CCCN4CCC3)C(=O)NC1=S (configuration not stated) | inconclusive: 44.7 µM [inhibitor, partial curve] | 
O=[N+]([O-])c1cc(S(=O)(=O)c2ccc(O)c([N+](=O)[O-])c2)ccc1O | inconclusive: 56.2 µM [inhibitor, partial curve, poor fit] | 
NP(N)(=O)NC(=O)c1ccc(F)cc1 | inconclusive: 39.8 µM [inhibitor, partial curve, poor fit] | 
CN(C[C@H]1CN2CC[C@H]1C[C@@H]2CNC(=O)c1ccccc1)c1ccccc1 | inactive | 
CC1(C)C(=O)CCC2C1=CCC1C2CCC2(C)C(O)CCC12 (configuration not stated) | inconclusive: 11.2 µM [inhibitor, partial curve, poor fit] | 
COc1cc(OC)c(OC)cc1CN1CCN(C(=O)COc2ccc3ccccc3c2)CC1 | inconclusive: 3.98 µM [inhibitor, full curve] | 
CC[n+]1c(-c2ccccc2)c2cc(N)ccc2c2ccc(N)cc21 | inconclusive: 10.2 µM [inhibitor, partial curve, poor fit] and inconclusive: 50.1 µM [inhibitor, partial curve, poor fit] | 
COc1ccc(Cl)cc1NC(=O)CN1C(=O)CN=C(c2ccccc2)c2cc(Cl)ccc21 | inconclusive: 56.2 µM [inhibitor, partial curve, poor fit] | 
N[C@H](CP(=O)(O)O)C(=O)O | inconclusive: 1.12 µM [inhibitor, full curve, poor fit] | 
COc1cc(OC)c(OC)cc1/C=C1\C(=O)NC(=O)N(Cc2ccccc2)C1=O | inconclusive: 44.7 µM [inhibitor, partial curve, poor fit] | 
CCCS(=O)(=O)NC[C@H]1C[C@@H]2CCN1C[C@@H]2CC | inactive | 
CC1([N+](=O)[O-])COP(=O)(Nc2ccc(Cl)cc2)OC1 (configuration not stated) | inconclusive: 39.8 µM [inhibitor, partial curve, poor fit] | 
Fc1ccc2c(c1)nnn2C1CCN(Cc2nnnn2CCc2ccccc2)CC1 | inconclusive: 28.2 µM [inhibitor, partial curve, poor fit] | 
CCOC(=O)c1ncc2[nH]c3ccc(OCc4ccccc4)cc3c2c1COC | inconclusive: 35.5 µM [inhibitor, single point] | 

An excerpt of these results, as comma-separated lines.
Structure (SMILES),Potency,"activity change, negative = inhibition"
O=C1N=c2ccccc2=C/C1=C\c1c(O)[nH]c(=S)[nH]c1=O,"inconclusive: 50.1 µM [inhibitor, partial curve, poor fit]",
COc1ccc([N+](=O)[O-])cc1N=Cc1c(O)n(CCc2ccccc2)c(=O)n(C(C)C)c1=O,inactive,
N#Cc1ccc(NC(=O)Cc2ccc3c(c2)CCC3)cc1Cl,"inconclusive: 50.1 µM [inhibitor, partial curve, poor fit]",
